The values that follow come from publication PMC8980056, “RAGE-TXNIP axis drives inflammation in Alzheimer’s by targeting Aβ to mitochondria in microglia” (Cell Death & Disease, 2022).

Assay [1] addresses Dynamin-Related Protein 1 (Drp1), endogenous in LPS-primed primary microglia (not stated (endogenous in primary microglia)) (UniProt Q8K1M6). Briefly: co-IP; co-immunoprecipitation with an anti-Drp1 antibody from LPS-primed primary microglia after 4 h of Aβ dimers addition; western blot of Aβ oligomers, TXNIP and Drp1. A general note: A western blot detects proteins with antibodies after separation by electrophoresis.

Assay [2] has the same target. Briefly: native gel or EMSA; as a5, microglia with TXNIP silencing (siTXNIP). Background: In EMSA bound probe runs differently from free probe, usually more slowly.

Results are given in words; binding and its absence hold for the method and conditions named. For some assays here: In cells and extracts the contact can be indirect. Some results given as binding are weak or reduced against the parent protein; the word gives no strength.

B1: Thioredoxin-Interacting Protein (TXNIP), endogenous in LPS-primed primary microglia (protein, UniProt Q8BG60 1-397)
chain: MVMFKKIKSFEVVFNDPEKVYGSGEKVAGRVIVEVCEVTRVKAVRILACGVAKVLWMQGSQQCKQTLDYLRYEDTLLLEEQPTAGENEMVIMRPGNKYEYKFGFELPQGPLGTSFKGKYGCVDYWVKAFLDRPSQPTQEAKKNFEVMDLVDVNTPDLMAPVSAKKEKKVSCMFIPDGRVSVSARIDRKGFCEGDDISIHADFENTCSRIVVPKAAIVARHTYLANGQTKVFTQKLSSVRGNHIISGTCASWRGKSLRVQKIRPSILGCNILKVEYSLLIYVSVPGSKKVILDLPLVIGSRSGLSSRTSSMASRTSSEMSWIDLNIPDTPEAPPCYMDIIPEDHRLESPTTPLLDDVDDSQDSPIFMYAPEFQFMPPPTYTEVDPCVLNNNNNNNNVQ
In the case of B1, the binding result in assay [1] is “binds”.

B2: Dynamin-Related Protein 1 (Drp1), endogenous in LPS-primed primary microglia (natural protein, UniProt Q8K1M6 1-736, looked up)
chain: MEALIPVINKLQDVFNTVGADIIQLPQIVVVGTQSSGKSSVLESLVGRDLLPRGTGVVTRRPLILQLVHVSPEDKRKTTGEENGVEAEEWGKFLHTKNKLYTDFDEIRQEIENETERISGNNKGVSPEPIHLKVFSPNVVNLTLVDLPGMTKVPVGDQPKDIELQIRELILRFISNPNSIILAVTAANTDMATSEALKISREVDPDGRRTLAVITKLDLMDAGTDAMDVLMGRVIPVKLGIIGVVNRSQLDINNKKSVTDSIRDEYAFLQKKYPSLANRNGTKYLARTLNRLLMHHIRDCLPELKTRINVLAAQYQSLLNSYGEPVDDKSATLLQLITKFATEYCNTIEGTAKYIETSELCGGARICYIFHETFGRTLESVDPLGGLNTIDILTAIRNATGPRPALFVPEVSFELLVKRQIKRLEEPSLRCVELVHEEMQRIIQHCSNYSTQELLRFPKLHDAIVEVVTCLLRKRLPVTNEMVHNLVAIELAYINTKHPDFADACGLMNNNIEEQRRNRLARELPSAGSRDKSSKVPSALAPASQEPPPAASAEADGKLIQDNRRETKNVPSAGGGIGDGGQEPTTGNWRGMLKTSKAEELLAEEKSKPIPIMPASPQKGHAVNLLDVPVPVARKLSAREQRDCEVIERLIKSYFLIVRKNIQDSVPKAVMHFLVNHVKDTLQSELVGQLYKSSLLDDLLTESEDMAQRRKEAADMLKALQGASQIIAEIRETHLW
notes: Dynamin-Related Protein 1 (Drp1), endogenous in primary microglia; Precipitated with an anti-Drp1 antibody; seen as tetramer on a native gel; Mouse is only surmised for the primary microglia; see the supplementary methods; source: endogenous, LPS-primed primary microglia lysate
In the case of B2, the binding entry in assay [2] was “no binding (condition: with TXNIP silencing (siTXNIP))”.
